Measured values taken from article PMC5057145.
These are yes or no findings as the source states them, for the method shown. In cells and extracts the contact can be indirect. Some binding calls cover weakened binding; strength is not graded here. Where a sequence is shown, tags or fusion partners need not be part of it.

Protein sequences, listed by entry. Tags and fused reporters are not part of them.
UniProt P17096: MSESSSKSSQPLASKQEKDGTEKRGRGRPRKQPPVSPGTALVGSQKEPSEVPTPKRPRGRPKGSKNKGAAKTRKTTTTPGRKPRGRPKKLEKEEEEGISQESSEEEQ
UniProt Q9C0K0: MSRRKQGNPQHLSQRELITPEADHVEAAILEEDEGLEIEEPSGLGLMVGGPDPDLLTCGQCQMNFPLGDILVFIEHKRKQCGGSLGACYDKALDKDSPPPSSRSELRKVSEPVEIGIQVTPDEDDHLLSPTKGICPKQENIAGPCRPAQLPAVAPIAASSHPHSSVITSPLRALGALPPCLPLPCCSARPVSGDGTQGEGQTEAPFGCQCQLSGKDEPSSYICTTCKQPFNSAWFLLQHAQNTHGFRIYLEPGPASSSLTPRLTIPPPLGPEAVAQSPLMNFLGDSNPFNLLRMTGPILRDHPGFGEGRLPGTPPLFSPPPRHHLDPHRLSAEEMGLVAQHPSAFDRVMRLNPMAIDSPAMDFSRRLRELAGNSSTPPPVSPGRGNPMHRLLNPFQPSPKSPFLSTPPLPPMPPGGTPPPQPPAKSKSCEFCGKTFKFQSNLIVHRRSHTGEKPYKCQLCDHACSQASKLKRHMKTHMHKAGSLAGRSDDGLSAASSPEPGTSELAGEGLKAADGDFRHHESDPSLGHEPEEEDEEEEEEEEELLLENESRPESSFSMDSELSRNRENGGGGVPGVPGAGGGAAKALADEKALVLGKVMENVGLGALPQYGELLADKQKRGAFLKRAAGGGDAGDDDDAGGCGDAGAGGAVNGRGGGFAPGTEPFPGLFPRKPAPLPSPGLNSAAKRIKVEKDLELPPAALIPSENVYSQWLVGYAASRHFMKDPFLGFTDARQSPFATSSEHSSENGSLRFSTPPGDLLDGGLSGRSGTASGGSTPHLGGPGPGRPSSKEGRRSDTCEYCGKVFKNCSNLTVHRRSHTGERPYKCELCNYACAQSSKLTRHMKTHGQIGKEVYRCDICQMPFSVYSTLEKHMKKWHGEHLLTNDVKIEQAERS

Biological target: T1, Flag-HIC1 (Hypermethylated In Cancer 1), wild type (UniProt Q14526)
T1 sequence: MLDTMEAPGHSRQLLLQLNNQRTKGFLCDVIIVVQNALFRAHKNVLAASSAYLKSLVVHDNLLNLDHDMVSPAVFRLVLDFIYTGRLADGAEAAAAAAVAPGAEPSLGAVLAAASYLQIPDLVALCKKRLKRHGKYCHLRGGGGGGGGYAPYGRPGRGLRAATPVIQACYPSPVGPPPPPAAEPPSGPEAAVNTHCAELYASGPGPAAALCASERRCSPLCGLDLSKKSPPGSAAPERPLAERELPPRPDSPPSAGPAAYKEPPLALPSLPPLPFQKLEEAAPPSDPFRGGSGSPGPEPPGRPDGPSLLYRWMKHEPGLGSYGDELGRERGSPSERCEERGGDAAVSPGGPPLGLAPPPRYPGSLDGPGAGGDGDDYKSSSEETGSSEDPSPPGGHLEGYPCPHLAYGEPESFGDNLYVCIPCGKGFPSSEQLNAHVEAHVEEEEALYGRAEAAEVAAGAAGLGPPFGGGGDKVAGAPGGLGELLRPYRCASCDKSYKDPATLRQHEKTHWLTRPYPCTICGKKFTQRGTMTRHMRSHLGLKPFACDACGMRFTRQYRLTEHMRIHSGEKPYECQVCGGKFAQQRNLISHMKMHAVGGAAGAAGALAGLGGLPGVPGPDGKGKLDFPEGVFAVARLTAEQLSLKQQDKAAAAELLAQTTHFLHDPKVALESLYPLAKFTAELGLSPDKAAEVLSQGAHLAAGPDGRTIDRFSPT
Experiment: co-IP; HEK293T co-transfected; nuclear extracts (1 mg) incubated overnight at 4 °C with M2 anti-Flag antibody; washes with high-salt (500 mM NaCl) and low salt (125 mM NaCl) buffers; Western blot

Row | binding | Substance
1 | binds | GFP-HMGA1 (High Mobility Group AT-Hook 1) (from UniProt P17096 1-107)
2 | binds | tap-CTIP2 (Bcl11b/CTIP2 from pNTAP-CTIP2) (from UniProt Q9C0K0 1-894)
